Our source for the binding values is patent US20060276386A1.

The chains behind the UniProt entries cited, without tags or fusion partners. Where a name states a change or a piece, a line headed by the entry shows the natural chain unless it says otherwise. A line that says so, or that is headed by a name, gives the form on record, which may keep a tag or linker.
UniProt P84022: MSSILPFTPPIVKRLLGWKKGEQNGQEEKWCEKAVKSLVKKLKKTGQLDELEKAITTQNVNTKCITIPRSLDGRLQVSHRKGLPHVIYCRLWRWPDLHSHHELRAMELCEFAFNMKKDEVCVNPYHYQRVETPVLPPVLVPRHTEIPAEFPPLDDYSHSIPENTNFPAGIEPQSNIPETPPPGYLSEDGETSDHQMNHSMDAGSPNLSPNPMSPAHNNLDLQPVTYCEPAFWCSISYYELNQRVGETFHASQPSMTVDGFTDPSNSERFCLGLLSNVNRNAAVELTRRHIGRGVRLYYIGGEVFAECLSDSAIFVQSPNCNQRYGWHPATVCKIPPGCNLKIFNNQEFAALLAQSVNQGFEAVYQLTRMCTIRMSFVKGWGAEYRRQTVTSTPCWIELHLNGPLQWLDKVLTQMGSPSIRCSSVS
UniProt Q9WUP7: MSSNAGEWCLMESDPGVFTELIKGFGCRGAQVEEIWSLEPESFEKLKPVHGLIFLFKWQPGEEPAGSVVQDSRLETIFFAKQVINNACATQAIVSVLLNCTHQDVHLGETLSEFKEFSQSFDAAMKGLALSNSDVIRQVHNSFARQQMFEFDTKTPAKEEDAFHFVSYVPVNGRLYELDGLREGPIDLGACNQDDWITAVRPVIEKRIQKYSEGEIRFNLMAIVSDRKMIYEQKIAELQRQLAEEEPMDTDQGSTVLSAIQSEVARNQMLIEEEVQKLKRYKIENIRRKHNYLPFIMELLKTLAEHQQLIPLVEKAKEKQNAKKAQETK
C-terminally FLAG-tagged full length UCH-L5 (Q9WUP7, form named): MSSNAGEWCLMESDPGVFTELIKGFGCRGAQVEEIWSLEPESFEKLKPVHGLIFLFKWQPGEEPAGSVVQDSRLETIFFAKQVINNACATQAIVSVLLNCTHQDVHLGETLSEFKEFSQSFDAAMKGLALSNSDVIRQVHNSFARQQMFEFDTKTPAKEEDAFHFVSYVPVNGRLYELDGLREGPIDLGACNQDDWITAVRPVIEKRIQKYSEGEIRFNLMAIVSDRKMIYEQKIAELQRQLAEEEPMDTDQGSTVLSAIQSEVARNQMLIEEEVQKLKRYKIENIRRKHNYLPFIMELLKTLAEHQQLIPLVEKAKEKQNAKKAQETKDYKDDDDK

These are yes or no findings as the source states them, for the method shown. For part of these data: Binding seen in cells or lysates may run through a third protein. Some results given as binding are weak or reduced against the parent protein; the word gives no strength.

Assay [1] concerns the target N-terminally HA-tagged Smad3 residues 1-385 (human) (UniProt P84022). The assay can be described thus: co-immunoprecipitation: anti-FLAG IP, anti-HA western blot, HEK-293 lysates.
For assay [2], the target named is N-terminally HA-tagged Smad3 residues 1-240 (human) (UniProt P84022). Described as above.
For assay [3], the target named is Smad3 residues 1-240 used as bait in the Clontech yeast two-hybrid system (human) (UniProt P84022). The assay can be described thus: yeast two-hybrid screen of a mouse brain cDNA library with Smad3 1-240 as bait.

With “C-terminally FLAG-tagged full length UCH-L5 (from UniProt Q9WUP7 1-329) (enzyme)”, the binding result in assay [1] and in assay [2] was “binds” in each case.

As for “UCH-L5 clone from the mouse brain cDNA library (yeast two-hybrid prey) (from UniProt Q9WUP7 1-329) (enzyme)”, the binding result in assay [3] is listed as “binds”.
